Values from PubChem BioAssay AID652272 (Drosophila RNAi Screening Center, 2013).
Purpose: 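Finding fly genes that regulate Hedgehog signal transduction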 (primary screen). Cell system: Drosophila clone 8 (Cl8) cells. Reagent: long dsRNA against Drosophila genes. Measured: 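Firefly light from a Hedgehog-responsive ptc promoter reporter and Renilla reference light, both read on a plate reader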. Direction: firefly Hh reporter signal: higher = more ptc reporter light; Renilla reference signal: higher = more Renilla control light. Call rule: 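Called a hit if the two-replicate mean z-score lies below -2 or above +3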. Calls: active = hit: reporter lowered or raised; inactive = not a hit.
The screen tested about 21,000 reagents; shown is an unselected part of those with a known target gene and a result. In the full data, 503 (2.4%) got an active call. 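Raw plate light values, not normalised; calls rest on replicate z-scores that were not deposited; hits include reporter decreases as well as increases.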 Reagents against one gene are numbered here. A plus sign joins genes that one reagent is predicted to hit. No sequences are given here. Not stated in the record: the amount of reagent, the time to read-out.

| target | dsRNA no. | firefly Hh reporter signal, replicate 1 | firefly Hh reporter signal, replicate 2 | firefly Hh reporter signal, replicate 3 | Renilla reference signal, replicate 1 | Renilla reference signal, replicate 2 | call |
| --- | --- | --- | --- | --- | --- | --- | --- |
| CG12448 | 1 | 72112 | 61016 | – | 1808 | 5140 | inactive |
| CG10359 | 1 | 62576 | 61220 | – | 2984 | 2102 | inactive |
| Cka | 1 | 1.20e5 | 69273 | – | 3921 | 7020 | inactive |
| CG11619 | 1 | 88393 | 1.62e5 | – | 3162 | 4740 | inactive |
| CG13449 | 1 | 1.30e5 | – | – | 7617 | 4134 | inactive |
| Pect | 1 | 1.05e5 | 1.02e5 | – | 3808 | 3776 | inactive |
| Pect | 2 | 91498 | 50848 | – | 2731 | 4349 | inactive |
| Fili | 1 | 1.17e5 | 1.81e5 | – | 2876 | 8763 | inactive |
| Fili | 2 | 85107 | 54914 | – | 2224 | 4999 | inactive |
| Fili | 3 | 72976 | 38996 | – | 2609 | 4208 | inactive |
| CG3829 | 1 | 1.35e5 | 1.01e5 | – | 5684 | 3920 | inactive |
| Est-6 | 1 | 23783 | 37245 | 50320 | 3808 | 3939 | inactive |
| PGAP3 | 1 | 88083 | 76464 | – | 3650 | 3049 | inactive |
| hui | 1 | 1.10e5 | 71428 | – | 4521 | 2516 | inactive |
| CG13891 | 1 | 80827 | 45674 | – | 2704 | 3186 | inactive |
| Ir21a + asRNA:CR43609 | 1 | 1.03e5 | 68162 | – | 2484 | 1478 | inactive |
| CG18609 | 1 | 95028 | 67575 | – | 2348 | 4680 | inactive |
| Cpr78E | 1 | 75754 | 88624 | – | 2595 | 2538 | inactive |
| Gip | 1 | 5.16e5 | 1.13e5 | – | 4706 | 4706 | inactive |
| Tim13 | 1 | 57192 | 59686 | 69509 | 6688 | 5540 | inactive |
| mAChR-A | 1 | 96860 | 65895 | – | 1376 | 6017 | inactive |
| Mal-A4 | 1 | 75811 | 34560 | – | 1763 | 3058 | inactive |
| NimC4 | 1 | 1.21e5 | 45888 | – | 3398 | 3876 | inactive |
| Ugt302K1 | 1 | 1.03e5 | 1.46e5 | – | 3656 | 4509 | inactive |
| CG6431 | 1 | 1.29e5 | 48130 | – | 3266 | 5378 | inactive |
| CG14464 | 1 | 67072 | 38710 | – | 2256 | 3144 | inactive |
| CG13856 | 1 | 1.02e6 | 1.97e5 | – | 51352 | 4834 | inactive |
| Tom7 | 1 | 1.48e5 | 1.82e5 | – | 3323 | 7942 | inactive |
| Tom7 | 2 | 84561 | 68513 | – | 2356 | 5769 | inactive |
| CG8870 | 1 | 91152 | 81744 | – | 2986 | 2272 | inactive |
| CG5050 | 1 | 94746 | 76978 | – | 2519 | 6312 | inactive |
| CG17168 | 1 | 61681 | 2.07e5 | – | 1504 | 9232 | inactive |
| CG17977 | 1 | 77675 | 52257 | – | 1952 | 4748 | inactive |
| ppk8 | 1 | 4.48e5 | 2.24e5 | – | 25349 | 3460 | inactive |
| CG8086 | 1 | 79632 | 94221 | – | 3017 | 4349 | inactive |
| CG8086 | 2 | 1.04e5 | 42093 | – | 2625 | 4535 | inactive |
| Epg5 | 1 | 8.23e5 | 1.21e5 | – | 44489 | 3584 | inactive |
| CG46491 | 1 | 1.13e5 | 1.10e5 | – | 5387 | 4400 | inactive |
| CG46491 | 2 | 77112 | 41357 | – | 2232 | 3120 | inactive |
| CG34436 | 1 | 96576 | 1.21e5 | – | 3338 | 3520 | inactive |
| atlas | 1 | 97680 | 47485 | – | 1140 | 4621 | inactive |
| CG2082 | 1 | 1.78e5 | 1.00e5 | – | 5847 | 3708 | inactive |
| Ufd1 | 1 | 79200 | 1.02e5 | – | 4912 | 4481 | inactive |
| dachs | 1 | 7.04e5 | 3.39e5 | – | 38986 | 14898 | inactive |
| dachs | 2 | 72457 | 62731 | – | 4016 | 861 | inactive |
| dachs | 3 | 1.02e5 | 73690 | – | 2583 | 6243 | inactive |
| CG33012 | 1 | 73875 | 52182 | – | 2040 | 3778 | inactive |
| CG33012 | 2 | 1.14e5 | 51466 | – | 2973 | 4509 | inactive |
| Cdc6 | 1 | 84504 | 41029 | – | 3735 | 1867 | inactive |
| galectin | 1 | 97149 | 68369 | – | 2464 | 1320 | inactive |
| Rab10 | 1 | 67959 | 1.83e5 | – | 1498 | 8720 | inactive |
| Roc2 | 1 | 1.12e5 | 67271 | – | 2746 | 5424 | inactive |
| CG14015 | 1 | 79428 | 44169 | – | 1936 | 4009 | inactive |
| PK2-R2 | 1 | 76944 | 95204 | – | 2514 | 2586 | inactive |
| Cpr97Eb | 1 | 1.11e5 | 1.35e5 | – | 3595 | 4698 | inactive |
| glu | 1 | 92117 | 46848 | – | 3649 | 2054 | inactive |
| AIMP2 | 1 | 82695 | 45946 | – | 3843 | 1809 | inactive |

No new results follow: 5 of the entries above.
| target | dsRNA no. | firefly Hh reporter signal, replicate 1 | firefly Hh reporter signal, replicate 2 | firefly Hh reporter signal, replicate 3 | Renilla reference signal, replicate 1 | Renilla reference signal, replicate 2 | call |
| --- | --- | --- | --- | --- | --- | --- | --- |
| dachs | 1 | 7.04e5 | 3.39e5 | – | 38986 | 14898 | inactive |
| dachs | 2 | 72457 | 62731 | – | 4016 | 861 | inactive |
| dachs | 3 | 1.02e5 | 73690 | – | 2583 | 6243 | inactive |
| CG33012 | 1 | 73875 | 52182 | – | 2040 | 3778 | inactive |
| CG33012 | 2 | 1.14e5 | 51466 | – | 2973 | 4509 | inactive |
